Construct, isoform or probe ends are uncertain for at least one entry. For some of these results: A weaker result is weaker than the reference pair of the same experiment. At least one verdict rests on a figure or table, not on a statement of the authors. Tags and fusion partners may be left off the protein sequences shown. For some of these results: At least one result comes from cells or an extract, where the contact may be indirect. For some of these results: A negative result means that nothing was seen under these conditions.
What was measured:
[1] = target: T1, SPDEF (recombinant, GST cleaved) (UniProt O95238); test: EMSA; conditions: pure SPDEF, EMSA on 6% native polyacrylamide, binding buffer and temperature not given, lysate in 25 mM Tris-Cl pH 7.4, 150 mM KCl, 0.5% NP-40, protease inhibitors, recombinant protein, protein details: GST tag cleaved before EMSA (pGEX6p1), label: 32P 5' end
T1 sequence (looked up, limits assumed): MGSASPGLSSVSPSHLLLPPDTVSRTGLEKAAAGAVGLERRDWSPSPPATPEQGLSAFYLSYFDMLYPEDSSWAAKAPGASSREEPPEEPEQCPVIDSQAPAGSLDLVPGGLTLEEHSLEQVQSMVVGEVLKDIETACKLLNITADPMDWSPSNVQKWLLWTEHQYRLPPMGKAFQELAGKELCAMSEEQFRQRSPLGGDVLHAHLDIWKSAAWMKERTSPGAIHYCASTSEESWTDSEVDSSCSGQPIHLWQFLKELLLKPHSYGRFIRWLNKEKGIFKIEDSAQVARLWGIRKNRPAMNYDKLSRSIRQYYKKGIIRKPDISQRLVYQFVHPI

[2] = target: T2, SPDEF (endogenous, LNCaP nuclear lysate) (UniProt O95238); test: EMSA; conditions: LNCaP nuclear lysate, EMSA on 6% native polyacrylamide, binding buffer and temperature not given, lysate in 25 mM Tris-Cl pH 7.4, 150 mM KCl, 0.5% NP-40, protease inhibitors, protein in an extract, label: 32P 5' end
T2 sequence (looked up, limits assumed): T1 sequence (looked up, limits assumed)

Sequence | binding result ([1]; legend: differential affinities of T and A alleles) | binding result ([2]; only an unknown protein bound) | binding result [1] | binding result ([2]; complex reduced with siSPDEF lysate)
TATTTGTTTTGGGTGACACAATTCAACCGGTAACATATCCTGATCCTTGGC (double strand) [EMSA-A (rs72725854 non-risk allele A)] | binds more weakly | no binding | – | –
TATTTGTTTTGGGTGACACAATTCATCCGGTAACATATCCTGATCCTTGGC (double strand) [EMSA-T (rs72725854 risk allele T)] | – | – | binds | binds

Reference: publication PMC7368061
